In all, about 52,000 sequences went through this assay and about 210 (0.4%) were called active.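 The calls were made as follows: active = gene whose silencing raises cell survival under the drug, median off-target-corrected z-score across its silencing RNAs 2 or more; inactive = the rest.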 The list shows a part of the results.

Among the data in PubChem BioAssay AID1347423 (Functional Genomics Laboratory (NCATS/FGL), 2020) are z-score values, retold here.

A short description of this test: Resistance to Poly (ADP-Ribose) Polymerase inhibitor: Gene Identification via Genome-wide siRNA Screen. Particulars: mouse BRCA2 R2336H ES cells, olaparib, CellTiter-Glo viability; stronger effect = higher value. In short, it runs like this:
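Mouse BRCA2 R2336H ES cells were reverse-transfected with siRNA (20 nM final), treated at 48 h with 500 nM olaparib, and read by CellTiter-Glo after 72 h. Scores: MAD-based z per siRNA, median per gene, seed off-target correction.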
Take CGUAGAUGUCCUAGAAUUGTT against Rundc1: the z-score is inactive: 0.791.
The result for GGGUUCUCAAGGUUGCAUUTT against Frs3 reads inactive: -0.404; that for GCAAAUUUAAGAGAAGUUGTT against Sart2, inactive: 0.642; that for CGGCCAAUUUGCCUUUCUCTT against Hes1, inactive: 0.651.
With GGAUCACGUUUCAAACAUCTT against Pip3ap the figure was inactive: 0.0755; with GCUUGUAAUGGUUAAUGUATT against Wtap, inactive: -0.0729.
As for GGACUAGAAACAAUGUCAATT against Siat10, the z-score is inactive: 1.18.
GGACGAGAUGAACAGCCUCTT against Chkb: the z-score was inactive: -2.34.
With GGCAUUGGUUAAAAAAGUUTT against Otx2 the figure was inactive: -0.919.
Regarding GCACUUCCUAACUGGUGCUTT against Olfr996, the z-score was inactive: 4.5.
The result for CGGAAUGUCAAUUUAAAGATT against Adam18 reads inactive: 0.82.
With GCGAAAGUCUACAAAAGAGTT against Thrap3 the figure was inactive: -1.48; with AGGAGCUCCUCAAAGCUCUTT against Zfp395, inactive: -0.461.
The result for GCCUUAACUCUUCUGGGAGTT against Stam reads inactive: 1.25.
Regarding GGUGCUCAUUGCUGUUUCUTT against BC011487, the z-score is inactive: -2.23.
As to CGUGCCAUAAUACACUAUCTT against Gng5, the z-score is inactive: -1.15.
With “GGCGAUGCUUCUUCAGUACTT against 1700030E05Rik” the figure was inactive: -1.01; with UCGAUGUACUGAGCUAAGGTT against Psme2, inactive: 0.473; with CCAUGAAGAUUUCUCGUUUTT against Ifrd1, inactive: 0.85.
In the case of “CCGCCUAAAAUCAGAAGCATT against 2900042E01Rik”, the z-score was inactive: -0.00286.
In the case of GGUCUUGGUCCCUGAGAAATT against Ddit4l, the z-score is inactive: -1.26.
GCCCGAUAUCGUGUUUUUCTT against Sirt2: the z-score is inactive: 0.571.
GCAAAACUUAUCUGACCUATT against Smn1: the z-score was inactive: 0.948.
Take GCCCUGUGCUUGGCAACAUTT against Ssbp3: the z-score was inactive: -0.405.
In the case of CGCAAAAAUCAGCACAGCUTT against Ptp4a3, the z-score was inactive: 0.652.
With GCUUGUCCUAUCUAUUUUATT against Mthfd2 the figure was inactive: 1.25.
The result for “GCAUAAAGCAGUCAUGCUUTT against 4933433P14Rik” reads inactive: -0.36; that for GGAGACUACUUUGUGUUUUTT against MGC28180, inactive: 0.668; that for GGCAAAGAAAACCAUGUCCTT against Zfp82, inactive: 0.74.
With GCUUGUACUGCUAAUACUUTT against Pggt1b the figure was inactive: -0.799; with GGUGAACACCUUUAUGAGGTT against Dguok, inactive: 0.547.
For GGAUGAACCAAGCUACUGCTT against Gba2, the z-score is inactive: 0.0382.
The result for “GUGUGCUUGAUGGAGACCATT against 2310007A19Rik” reads inactive: 1.79.
With “GGAUGGUAUAUGAUGAGAUTT against 9030221C07Rik” the figure was inactive: 1.57; with “GCGAAGUGCCUGCUAUUCUTT against A830039B04Rik”, inactive: -1.07.
Regarding “GCCUGACUUUCUUAAAGGCTT against 2810006K23Rik”, the z-score is inactive: 0.773.
With CCUAGAUUCGGACAAGGAUTT against Kctd5 the figure was inactive: 0.849; with GGCCAAGAAGGAAAGGGAUTT against Atp1a1, inactive: -1.33.
The result for GCAGAAUAGCUGAUGACAGTT against Galntl2 reads inactive: -0.634; that for GGUGCAAGGAAAAACAAAATT against Ggh, inactive: 1.17; that for GGCCAGAAAUGUACAUACATT against Map4k5, inactive: -1.27.
With GCCUGAAUAUUGCUAUCACTT against AI790205 the figure was inactive: -0.89; with GCUGCCAAAAGAUCUCGGGTT against Nfil3, inactive: 1.49.
In the case of GCAGCAAGCUUAAUUACAGTT against Wins2, the z-score was inactive: -0.351.
Take GGUUACGUCUACGACUGGATT against Scml2: the z-score was inactive: -1.52.
The result for “GGAAAUGAGGAUGAGGUCCTT against 0610009A07Rik” reads inactive: -0.817; that for CGAGUACGCUCUGCUAUUCTT against Ptgds, inactive: -0.013; that for GGAGGUCACCUUCUCAAACTT against Mrgprf, inactive: -0.558.
With “GGUUCAGUUUGCCAAAGACTT against A930017N06Rik” the figure was inactive: -2.86; with “GGGACCGUCUUAAACAUCUTT against 2410005K20Rik”, inactive: -0.496.
Regarding CCGUAUUGUCACUUGUGGGTT against Arpc1a, the z-score was inactive: 0.218.
For the sequence GGGAGGAGGACAACAAGUATT against Smap1, the z-score is inactive: -0.144.
The result for GCACAAAUACAGGUCGUCUTT against Zc3hdc5 reads inactive: -1.46; that for GGGUGGAGUGAAAUACUUUTT against MGC27770, inactive: 0.298.
For the sequence GGCUCUGUGCAGACAUUUCTT against Pop5, the z-score was inactive: -0.0511.
With GCCGAUCACACAGUGGAAATT against Spin2, the z-score was inactive: 0.773.
The result for GGAGUUUGUGGAUGACUUUTT against Rsn reads inactive: 0.235; that for GCUGUCACGAGGAAUCAUGTT against Scarf2, inactive: 1.21.
With “CCAAGAAAUUGCACUGGGATT against A130050O07Rik” the figure was inactive: 0.217.
As to GGCUACCACAUCUGAUAACTT against Serpind1, the z-score was inactive: -1.25.
The result for GGAGAACAGAUAAAUAGUGTT against Msh2 reads inactive: -0.135; that for “GGACCUGCGUUUUGGCACATT against 9430007A20Rik”, inactive: 0.306.
With GGCUUACCGUACCUUCCAATT against Cntf the figure was inactive: -2.26; with GCAAUAAAGCUCCUUCCAUTT against Ctrc, inactive: -0.714; with GGCUAAUGAUCAGGAUAUUTT against Cdh8, inactive: 0.716.
With “GGAGAGAACUGGAAGAGAGTT against 0610040D20Rik” the figure was inactive: -2.18; with GGUGUCUGAAUUUGUGGCUTT against Abtb1, inactive: 1.65.
Turning to CCUAUGCAUCAGACCUUUGTT against Nedd9, the z-score was inactive: -0.864.
The result for GGGAGAGGUAUGUCUGUAATT against Il15ra reads inactive: -1.95.
With GGAGUACAGCUGUGUAAUATT against Pcna the figure was inactive: -3.05.
With GGCGGGUAGAUAUCAUGGGTT against Obfc1 the figure was inactive: 1.73; with GGGCUUAUUCUCAGUUCUGTT against Slc17a1, inactive: -0.646; with GCGAUUGAGAGGCUACACUTT against Pigb, inactive: -0.799.
As for CCUUUUCCCGCUCUUAAAATT against Olfr1260, the z-score was inactive: 0.248.
The result for GGCAAUUACUUCAUUGAUCTT against Kctd6 reads inactive: -0.144; that for “GGGUAAAAAGACGAAGAAATT against D530031C13Rik”, inactive: 0.0509; that for GGAUCUGGCAUUCAGAUAATT against Oazin, inactive: 0.544.
Turning to CGCAGUGUAUGAUUAUAUATT against Dp1, the z-score is inactive: 1.38.
The result for GGAUGAAUCUGAAGAUUCCTT against Nol3 reads inactive: 1.63; that for “GGUUUUGUCACCAUAGCCATT against 3110040N11Rik”, inactive: 1.82; that for GGAGGAAGAAGAGAUACCUTT against Foxh1, inactive: -0.259.
With GCUCCUGGUCUCAUUUACATT against BC066223 the figure was inactive: -0.915.
With GGUGAACCUGUCAAACCUUTT against Hspbap1 the figure was inactive: 1.37; with GGUGUCUGCUUCUUCAAAGTT against Slc25a26, inactive: -2.64.
In the case of GGGACAUUUUCUUCUUUAUTT against Gch1, the z-score is inactive: 0.734.
The result for GGAGAGAACAUUGAACAAATT against Ssx2ip reads inactive: -0.43; that for “GGAAUGAAAGAGAAAGAUUTT against C530050O22Rik”, inactive: -0.728.
With “AACCAACUCAGCUUACAUUTT against D9Ertd402e”, the z-score is inactive: 1.06.
For “CCAAGAGAUCCUUAUUAAATT against 1110005F07Rik”, the z-score was inactive: -0.486.
With GGGCUUUCUAUGCUGGAGGTT against Atp8b3 the figure was inactive: 1.75; with “GGCACGGAAAUCUUUACAATT against 1110039B18Rik”, inactive: 0.269.
As for GGAAUUUUAGCCAAGACAATT against Bbs4, the z-score was inactive: 0.295.
With “GGAAUGGAAACAGAGUUAUTT against 9930016F01Rik” the figure was inactive: 0.53.
The result for GGCUCUGUACCAUGAGGAATT against Krt2-16 reads inactive: -0.23; that for “GGGCUUCAGAAGAGAAAAUTT against 1100001H23Rik”, inactive: -0.589.
GUUAACCCUGAGCCUAAACTT against Spata3: the z-score is inactive: 1.56.
The result for GCAUUGUGAUGACCACCUGTT against Slc10a1 reads inactive: -0.219; that for “GGAUAUGAACCCUACUCUUTT against 6430550H21Rik”, inactive: -1.5.
GCGAGCUCAGAUCAAAUAGTT against Acsl3: the z-score was inactive: -2.48.
The result for “GCAUUGAGGAACGACUCACTT against 4921521J11Rik” reads inactive: 0.642; that for GAUUUGCUACUCCUCUACGTT against Olfr1273, inactive: 0.538.
With GGAGAAAUGUCAGUGCGAUTT against Mlc1, the z-score was inactive: -1.21.
With GAUUUCUUUGUGUCAUUGATT against V1rc12 the figure was inactive: -0.733; with GGCAGAAAGUUAUUAUAGGTT against BC005764, inactive: 0.818.
